Patent US6339063B1, “9a-azalides as veterinary antimicrobial agents” (Merck & Co., Inc., priority 1997, dated 2002)
Some of these results come from one statement about several compounds together. At least one compound was matched to its structure with a doubt left.

Tests used:
Salmonella spp. = assay: MIC determination against veterinary pathogens; format: cell-based; settings: range covering azithromycin and 4″-deoxy-4″-aminoazithromycin
E. coli = assay: MIC determination against veterinary pathogens; format: cell-based, Escherichia coli; settings: range covering azithromycin and 4″-deoxy-4″-aminoazithromycin

CC[C@H]1OC(=O)[C@H](C)[C@@H](O[C@H]2C[C@@](C)(OC)[C@@H](N)[C@H](C)O2)[C@H](C)[C@@H](O[C@@H]2O[C@H](C)C[C@H](N(C)C)[C@H]2O)[C@](C)(O)C[C@@H](C)CN(C)[C@H](C)[C@@H](O)[C@]1(C)O [4″-deoxy-4″-aminoazithromycin]
MIC range (Salmonella spp.): 1 to 16 µg/mL | MIC range (E. coli): 0.5 to 16 µg/mL
